{"source": "paper PMC7819943", "about": "“Rice protein-binding microarrays: a tool to detect cis-acting elements near promoter regions in rice”", "note": "The other results are listed elsewhere or left out.", "data": [{"target": "T1, OsSMF1 (Oryza sativa, UniProt Q6ZLB0 1-436)", "T1 sequence": "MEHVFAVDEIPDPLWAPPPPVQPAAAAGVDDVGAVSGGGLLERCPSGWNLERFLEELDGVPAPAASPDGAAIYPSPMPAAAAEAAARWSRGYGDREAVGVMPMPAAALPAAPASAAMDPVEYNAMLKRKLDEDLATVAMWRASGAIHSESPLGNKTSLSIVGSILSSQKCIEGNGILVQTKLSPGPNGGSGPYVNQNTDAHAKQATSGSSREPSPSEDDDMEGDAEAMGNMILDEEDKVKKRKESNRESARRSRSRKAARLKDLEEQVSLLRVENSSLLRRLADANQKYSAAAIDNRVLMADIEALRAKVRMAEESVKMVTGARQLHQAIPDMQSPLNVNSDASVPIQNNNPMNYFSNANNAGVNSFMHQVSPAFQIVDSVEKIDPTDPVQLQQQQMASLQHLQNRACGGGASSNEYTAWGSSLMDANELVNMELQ", "test": "protein-binding microarray (RPBM); PBS, 2% BSA, 51.3 ng/ul salmon testes DNA, 50 uM zinc acetate, 200 nM TF, 25 C, 1 h; high values mean tight binding", "conditions": "protein: recombinant; tags: N-terminal polyhistidine and DsRed monomer fusion (pET32a); chain copies: 2; label: CyDye5-dUTP incorporated in the synthesized complementary strand; 3' TTTTT single-stranded linker to array surface; dsDNA, one strand shown", "procedure,_shortened": "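Transcription factors were each fused at the N-terminus to a polyhistidine tag plus DsRed and expressed in E. coli BL21-CodonPlus before Ni–NTA purification. Binding to a double-stranded custom Agilent array was carried out with 200 nM protein at 25 °C for 1 h in PBS, 2% BSA, salmon testes DNA and 50 µM zinc acetate. The binding signal is per-feature fluorescence intensity, in arbitrary units, on an Axon 4000B scanner.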", "values": [{"sequence": "TCGCACACAGCTCAGCAGCTAACTAGTCCAATGGAGCAGCCGGAGTCACCTAGTGCAG", "binding signal": "3260 fluorescence intensity (a.u.)"}, {"sequence": "GAGAGCGGATGACATGTGATCGGGGACGTCGGTGGTGGCCCGGAGTCACCTAGTGCAG", "binding signal": "3230 fluorescence intensity (a.u.)"}, {"sequence": "TACTGGTATATATCTACGTGTTTGAAGTACAACACATTAACGGAGTCACCTAGTGCAG", "binding signal": "4090 fluorescence intensity (a.u.)"}, {"sequence": "GACGAGGATAAGGCAACAAGCTCAGTCATGGGCCGCCAACCGGAGTCACCTAGTGCAG", "binding signal": "3520 fluorescence intensity (a.u.)"}, {"sequence": "ATATTCCACCAAGCAAAAGCCACATCATGCTGTGCTGTGCCGGAGTCACCTAGTGCAG", "binding signal": "6050 fluorescence intensity (a.u.)"}, {"sequence": "CTTATTGCTAAGTCACTCTGCTACATGTAAAAGGCATGACCGGAGTCACCTAGTGCAG", "binding signal": "3380 fluorescence intensity (a.u.)"}, {"sequence": "CTACTGAACTGCTGACTACTATGCTCCAGGTCCAAGCCCTCGGAGTCACCTAGTGCAG", "binding signal": "3420 fluorescence intensity (a.u.)"}, {"sequence": "TAGCGCGGCTGCACAGTACAGTCCGACGTCACAGCTCACTCGGAGTCACCTAGTGCAG", "binding signal": "49200 fluorescence intensity (a.u.)"}, {"sequence": "GGAGGGAGTATTGGATTACATAAATAAAACGTATACATGTCGGAGTCACCTAGTGCAG", "binding signal": "3560 fluorescence intensity (a.u.)"}, {"sequence": "GCGTGATTGACGCGGAACCCGAGGTGGACGGACTATGGAACGGAGTCACCTAGTGCAG", "binding signal": "3390 fluorescence intensity (a.u.)"}, {"sequence": "TTTCGGTCATGAAAACTCAGGACCAAATTTCATCCAAATACGGAGTCACCTAGTGCAG", "binding signal": "29300 fluorescence intensity (a.u.)"}, {"sequence": "ACATGGAGTTGAGTTGGTTAGTGTATCGAAGATTAAAATGCGGAGTCACCTAGTGCAG", "binding signal": "4100 fluorescence intensity (a.u.)"}, {"sequence": "TGTCCGTCTCCGACCTGCCCATGCTGTCGTGCCACTACATCGGAGTCACCTAGTGCAG", "binding signal": "3520 fluorescence intensity (a.u.)"}, {"sequence": "GATAATGGCTACCGTGCTGGATTCATGTCACCCACTTCTCCGGAGTCACCTAGTGCAG", "binding signal": "4390 fluorescence intensity (a.u.)"}, {"sequence": "GATCGAACCAAAGCCGAGTCATCGATTATCCTTATCCATTCGGAGTCACCTAGTGCAG", "binding signal": "6860 fluorescence intensity (a.u.)"}, {"sequence": "TCAAAAGATTCGTCTCGCGAATTAGTCCAAGATTATGGTTCGGAGTCACCTAGTGCAG", "binding signal": "36000 fluorescence intensity (a.u.)"}, {"sequence": "ATCGTGTGACGACGTCTCGTCTCGTCTCCCTCTCCCGACCCGGAGTCACCTAGTGCAG", "binding signal": "3260 fluorescence intensity (a.u.)"}, {"sequence": "GCTCTCCGGGATTTGTCCTGGCAAGTGCCACAACAGCGCACGGAGTCACCTAGTGCAG", "binding signal": "3700 fluorescence intensity (a.u.)"}, {"sequence": "TTGACAATATTATTTCGCCACATCAGACCAGCCAGTACCACGGAGTCACCTAGTGCAG", "binding signal": "8430 fluorescence intensity (a.u.)"}, {"sequence": "TACAAGTCGCCGCGGGAGTTCGCCGGTGACGTGCGCCTTACGGAGTCACCTAGTGCAG", "binding signal": "8440 fluorescence intensity (a.u.)"}, {"sequence": "CCATTGATTGATTATCAGTGGGCGTAATCATCAGTCTAAACGGAGTCACCTAGTGCAG", "binding signal": "42100 fluorescence intensity (a.u.)"}, {"sequence": "CTCTCCGTCTCAGTCCACTGACGATGCATGTGAGTGAGTGCGGAGTCACCTAGTGCAG", "binding signal": "4340 fluorescence intensity (a.u.)"}, {"sequence": "CCACCGGTGACTGGATCCCGTCCTCTCTCTGGCCGCTAGCCGGAGTCACCTAGTGCAG", "binding signal": "3860 fluorescence intensity (a.u.)"}, {"sequence": "CTGTGTAATTAGTTTATTTTGTCTATATTTAATACTCTATCGGAGTCACCTAGTGCAG", "binding signal": "29200 fluorescence intensity (a.u.)"}, {"sequence": "TATATAACTTCCAGTACCAAAATTGCGTGATTGTGCTAATCGGAGTCACCTAGTGCAG", "binding signal": "9530 fluorescence intensity (a.u.)"}, {"sequence": "CGACCTGGCAGACCAACGTGGACCACGCGGCGGCGGCGGCCGGAGTCACCTAGTGCAG", "binding signal": "6130 fluorescence intensity (a.u.)"}, {"sequence": "ACACACACACACATATATATATCTGTGTGTGTGTCAAGCACGGAGTCACCTAGTGCAG", "binding signal": "3300 fluorescence intensity (a.u.)"}, {"sequence": "AATCCTGTTGTTGTGGTCTATCGCTTACAACTCTAATACTCGGAGTCACCTAGTGCAG", "binding signal": "4220 fluorescence intensity (a.u.)"}, {"sequence": "GAGTGCCTTTAGCTCAGCCACATCCTTCTTCATCGCTGCCCGGAGTCACCTAGTGCAG", "binding signal": "3930 fluorescence intensity (a.u.)"}, {"sequence": "AAGCAGTCGAGATTGCTTTCTCCACCCGCCGTCAATGACTCGGAGTCACCTAGTGCAG", "binding signal": "3270 fluorescence intensity (a.u.)"}, {"sequence": "GTGATTAGATGACCTACTGCTTATTTATTTTCATTCATACCGGAGTCACCTAGTGCAG", "binding signal": "3770 fluorescence intensity (a.u.)"}, {"sequence": "TATCTATTTCTAGTCCTTACACATCCTTATAACTCTTTTGCGGAGTCACCTAGTGCAG", "binding signal": "3220 fluorescence intensity (a.u.)"}, {"sequence": "TGGCGTGGCCACCCGCGGGTGCCGACGCGTCATCGATGCTCGGAGTCACCTAGTGCAG", "binding signal": "9030 fluorescence intensity (a.u.)"}, {"sequence": "CGTCCATCTCCGCGTCCGCGCTCTCGTGGCTCCACCTCCACGGAGTCACCTAGTGCAG", "binding signal": "3890 fluorescence intensity (a.u.)"}, {"sequence": "ATCGCTACATTCCTGGAGGCATCCAGTTGATTCCACTCAACGGAGTCACCTAGTGCAG", "binding signal": "3180 fluorescence intensity (a.u.)"}, {"sequence": "GTTATCCCCTCCTCGTCACGCTATCTATAGGCCCATTATTCGGAGTCACCTAGTGCAG", "binding signal": "6850 fluorescence intensity (a.u.)"}, {"sequence": "TGTAAATCTGGATTGCACATTACTCTTCTGTACTATCCATCGGAGTCACCTAGTGCAG", "binding signal": "3410 fluorescence intensity (a.u.)"}, {"sequence": "ATCTAACTGTTGTCGATCTGGCGGTCTGACGATCTGACTCCGGAGTCACCTAGTGCAG", "binding signal": "3890 fluorescence intensity (a.u.)"}, {"sequence": "CCCACATCTCAGCCCACGTAGGCTCAATACATCCAGTTGGCGGAGTCACCTAGTGCAG", "binding signal": "7560 fluorescence intensity (a.u.)"}, {"sequence": "CCGAGGCCTCAGTGGATTGAGCGGGTGTGTGTGTCGAGCGCGGAGTCACCTAGTGCAG", "binding signal": "4600 fluorescence intensity (a.u.)"}, {"sequence": "GTCCTCGCCACGGCGCGCACGCCACGCGTACGTAGGCCGGCGGAGTCACCTAGTGCAG", "binding signal": "5270 fluorescence intensity (a.u.)"}, {"sequence": "CTCAGTCGACCAATCGTTGATCGCCACGTCGGCTGTTCTTCGGAGTCACCTAGTGCAG", "binding signal": "11200 fluorescence intensity (a.u.)"}]}]}
